{"source": "patent US20090196912A1", "about": "“Pyridinylamines” (GPC Botech AG, priority 2004, published 2009)", "system": "PDGFR", "experiment": "Generic kinase assay (33P-ATP, Myelin Basic Protein)", "assay_type": "biochemical", "details": "class symbol: % inhibition at 10 μM or IC50", "experimental": "In order to determine the inhibitory effect of the compounds of the subject invention on various target enzymes a generic kinase assay was established.\nReactions were performed in 96-Well U-bottom microtiter plates (Greiner Bio-One; Frickenhausen/Germany, Cat. No. 650161), hereinafter designated “Assay Plates”. 10 μl of a solution comprising 40 μM Myelin Basic Protein (Invitrogen; Carlsbad, Calif./USA; Cat. No. 13228-010) and 4 μM ATP in three-fold concentrated Reaction Buffer (60 mM Tris-HCl, pH 7.5; 30 mM MgCl2; 3 mM dithiothreitol) were added into each well of the Assay Plate. 10 μl of serial dilutions of the compounds of the subject invention, dissolved in 4% DMSO, were then added into each well, except for Positive Control. Wells (C+ wells) and Negative Control Wells (C− wells). 10 μl of 4% DMSO without compounds were added to C+ and C− wells. […] The optimal amount of kinase in the assay was determined to be the amount which yields to a turn-over of about 10% of ATP. […] Samples were now ready for measurement.\nMeasurements were preformed in 96-Well MAPH-Filter Plates (Millipore; Billerica, Mass./United States; Cat. No. MAPHNOB50), hereinafter designated “Measurement Plates”. […] The plate was sealed and stored for 30 minutes in the darkness before radioactivity was quantified in a MicroBeta Scintillation Counter (Perkin Elmer, Wellesley. Mass./United States).", "note": "For at least one compound, name, drawing or mass did not settle the structure.", "data": [{"smiles": "NC(=O)c1cccc(-c2cncc(NCc3cccc(O)c3)c2)c1", "note": "[Compound 230, 3-[5-(3-Hydroxy-benzylamino)-pyridin-3-yl]-benzamide]", "values": [{"measurement": "Inhibitory effect on target PDGFR", "value": "A (A: 50-90% inhibition at 10 μM enzyme concentration)"}]}]}
